According to article PMC11192709:
Results are given in words; binding and its absence hold for the method and conditions named. In cells and extracts the contact can be indirect. Some entries that bind do so weakly or less than the wild type.

Chains of the proteins cited; added tags and fusions are not shown.
UniProt P09874: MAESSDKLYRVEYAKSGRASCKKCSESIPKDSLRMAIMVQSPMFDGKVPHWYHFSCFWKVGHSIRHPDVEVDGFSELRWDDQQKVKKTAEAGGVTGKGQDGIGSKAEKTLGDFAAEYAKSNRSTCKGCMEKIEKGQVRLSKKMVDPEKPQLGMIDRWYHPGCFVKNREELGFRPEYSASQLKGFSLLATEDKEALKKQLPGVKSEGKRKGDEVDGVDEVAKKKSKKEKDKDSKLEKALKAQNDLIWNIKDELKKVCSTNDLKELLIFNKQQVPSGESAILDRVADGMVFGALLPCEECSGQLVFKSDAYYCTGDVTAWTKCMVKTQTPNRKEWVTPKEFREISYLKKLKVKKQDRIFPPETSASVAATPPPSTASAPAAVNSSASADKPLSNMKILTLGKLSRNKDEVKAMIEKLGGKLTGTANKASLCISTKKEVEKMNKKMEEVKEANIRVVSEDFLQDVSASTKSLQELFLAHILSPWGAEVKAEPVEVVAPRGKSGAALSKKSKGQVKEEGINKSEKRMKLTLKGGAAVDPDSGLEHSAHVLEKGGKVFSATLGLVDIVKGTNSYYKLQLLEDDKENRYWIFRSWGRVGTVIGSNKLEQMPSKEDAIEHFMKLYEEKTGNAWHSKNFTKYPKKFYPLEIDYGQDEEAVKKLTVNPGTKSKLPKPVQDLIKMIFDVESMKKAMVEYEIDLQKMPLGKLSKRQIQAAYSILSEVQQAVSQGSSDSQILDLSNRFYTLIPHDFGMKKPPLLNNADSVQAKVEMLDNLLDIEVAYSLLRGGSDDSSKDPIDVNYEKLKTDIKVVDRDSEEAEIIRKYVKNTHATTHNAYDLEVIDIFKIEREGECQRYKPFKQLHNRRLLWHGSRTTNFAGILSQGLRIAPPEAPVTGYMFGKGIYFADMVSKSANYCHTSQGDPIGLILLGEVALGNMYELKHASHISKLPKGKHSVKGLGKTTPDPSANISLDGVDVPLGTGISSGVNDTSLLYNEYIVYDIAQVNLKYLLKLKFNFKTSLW

B1: XRCC2 (protein, UniProt O43543 1-280)
chain: MCSAFHRAESGTELLARLEGRSSLKEIEPNLFADEDSPVHGDILEFHGPEGTGKTEMLYHLTARCILPKSEGGLEVEVLFIDTDYHFDMLRLVTILEHRLSQSSEEIIKYCLGRFFLVYCSSSTHLLLTLYSLESMFCSHPSLCLLILDSLSAFYWIDRVNGGESVNLQESTLRKCSQCLEKLVNDYRLVLFATTQTIMQKASSSSEEPSHASRRLCDVDIDYRPYLCKAWQQLVKHRMFFSKQDDSQSSNQFSLVSRCLKSNSLKKHFFIIGESGVEFC

What was measured:
[1] = target: T1, XRCC2 (human (endogenous in SW620)) (UniProt O43543); experiment: co-IP; Pierce Co-Immunoprecipitation Kit; SW620 cells; precipitation with anti-PARP1 or anti-XRCC2 mouse monoclonal antibody (two-way), IgG as negative control, Western blot
T1 sequence: B1 chain

[2] = target: PAR polymerase1 (PARP1) (human (endogenous in SW620)) (UniProt P09874); experiment: as above

Molecule	binding [1]	binding [2]
PAR polymerase1 (PARP1) (from UniProt P09874 1-1014)	binds	–
B1	–	binds
